The list shows a part of the results.
How the values were obtained:
Assay in all cases: log2 fold change, soluble protein after heating vs DMSO (PISA); higher = thermal stabilisation; K562 cells, 10 uM, 30 min; active = over 0.2 and 3.5 SD of the protein, either way, in both replicates (recomputed)
[1] = compound: CN1CCN(CCOc2cc(OC3CCOCC3)c3c(Nc4c(Cl)ccc5c4OCO5)ncnc3c2)CC1 [saracatinib]
In short: (§1)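 For each measurement, 10 μM compound was applied for 30 min to K562 cells at 2×10^6 cells/mL. Aliquots were heated for 3 min across 48°C-58°C, pooled, and extracted in PBS with 0.5% NP-40 at 4°C; the supernatant after 21,000xg for 90 min was soluble protein. This was quantified by TMTpro 16plex LC-MS/MS with channel sums equalised, and thermal stability was reported relative to control samples from duplicates, on a log2 fold-change scale.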

Protein sequences, listed by entry. Tags and fused reporters are not part of them. Lines headed by an entry give the natural chain unless they say otherwise; changes in a name come on top.
UniProt P00846: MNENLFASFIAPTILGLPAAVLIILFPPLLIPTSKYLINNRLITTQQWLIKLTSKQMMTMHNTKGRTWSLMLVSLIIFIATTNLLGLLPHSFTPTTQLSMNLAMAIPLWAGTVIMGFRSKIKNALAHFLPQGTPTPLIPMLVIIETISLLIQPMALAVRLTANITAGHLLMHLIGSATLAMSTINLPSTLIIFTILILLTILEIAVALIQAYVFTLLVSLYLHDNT
UniProt Q68DK7: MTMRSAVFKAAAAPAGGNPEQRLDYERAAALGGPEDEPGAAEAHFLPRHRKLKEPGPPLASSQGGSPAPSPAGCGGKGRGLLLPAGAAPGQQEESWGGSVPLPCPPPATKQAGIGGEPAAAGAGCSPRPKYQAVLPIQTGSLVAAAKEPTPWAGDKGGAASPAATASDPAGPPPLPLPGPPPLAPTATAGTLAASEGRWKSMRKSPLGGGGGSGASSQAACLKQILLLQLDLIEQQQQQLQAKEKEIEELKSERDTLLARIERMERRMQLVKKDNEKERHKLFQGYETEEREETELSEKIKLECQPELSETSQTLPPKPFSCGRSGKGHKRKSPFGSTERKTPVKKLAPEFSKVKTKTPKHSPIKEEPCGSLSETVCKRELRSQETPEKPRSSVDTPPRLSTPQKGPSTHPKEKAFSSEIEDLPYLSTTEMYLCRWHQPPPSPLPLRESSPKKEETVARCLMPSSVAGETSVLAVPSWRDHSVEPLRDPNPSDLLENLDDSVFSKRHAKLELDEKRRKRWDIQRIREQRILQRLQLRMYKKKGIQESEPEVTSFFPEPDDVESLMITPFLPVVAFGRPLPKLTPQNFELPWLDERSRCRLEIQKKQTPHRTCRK
UniProt Q96E29: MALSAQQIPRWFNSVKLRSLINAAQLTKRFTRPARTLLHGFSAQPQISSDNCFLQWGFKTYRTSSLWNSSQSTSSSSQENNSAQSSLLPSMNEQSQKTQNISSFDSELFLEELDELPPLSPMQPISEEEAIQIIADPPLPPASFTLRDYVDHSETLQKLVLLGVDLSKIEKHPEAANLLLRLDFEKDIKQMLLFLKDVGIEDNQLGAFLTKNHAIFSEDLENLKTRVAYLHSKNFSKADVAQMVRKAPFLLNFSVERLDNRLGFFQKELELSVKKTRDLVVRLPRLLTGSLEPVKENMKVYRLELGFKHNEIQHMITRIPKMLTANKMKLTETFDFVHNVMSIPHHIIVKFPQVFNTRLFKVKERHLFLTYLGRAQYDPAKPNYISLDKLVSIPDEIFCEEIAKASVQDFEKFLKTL
UniProt Q9H019: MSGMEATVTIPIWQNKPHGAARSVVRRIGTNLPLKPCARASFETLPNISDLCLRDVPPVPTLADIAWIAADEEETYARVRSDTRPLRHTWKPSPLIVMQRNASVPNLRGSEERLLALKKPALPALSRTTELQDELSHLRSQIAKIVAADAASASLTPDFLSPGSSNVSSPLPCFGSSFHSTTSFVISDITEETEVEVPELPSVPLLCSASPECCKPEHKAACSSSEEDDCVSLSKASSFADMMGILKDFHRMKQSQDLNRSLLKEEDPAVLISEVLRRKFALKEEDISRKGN
UniProt Q969V5: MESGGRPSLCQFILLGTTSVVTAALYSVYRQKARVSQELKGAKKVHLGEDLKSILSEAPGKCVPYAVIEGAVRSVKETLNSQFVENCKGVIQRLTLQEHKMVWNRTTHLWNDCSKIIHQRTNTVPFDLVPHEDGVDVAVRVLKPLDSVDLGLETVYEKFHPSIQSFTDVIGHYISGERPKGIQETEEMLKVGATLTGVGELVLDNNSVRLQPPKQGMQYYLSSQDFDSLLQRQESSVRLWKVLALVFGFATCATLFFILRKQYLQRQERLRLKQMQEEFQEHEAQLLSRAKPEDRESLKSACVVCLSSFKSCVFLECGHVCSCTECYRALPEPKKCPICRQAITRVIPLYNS
UniProt Q9BTC8: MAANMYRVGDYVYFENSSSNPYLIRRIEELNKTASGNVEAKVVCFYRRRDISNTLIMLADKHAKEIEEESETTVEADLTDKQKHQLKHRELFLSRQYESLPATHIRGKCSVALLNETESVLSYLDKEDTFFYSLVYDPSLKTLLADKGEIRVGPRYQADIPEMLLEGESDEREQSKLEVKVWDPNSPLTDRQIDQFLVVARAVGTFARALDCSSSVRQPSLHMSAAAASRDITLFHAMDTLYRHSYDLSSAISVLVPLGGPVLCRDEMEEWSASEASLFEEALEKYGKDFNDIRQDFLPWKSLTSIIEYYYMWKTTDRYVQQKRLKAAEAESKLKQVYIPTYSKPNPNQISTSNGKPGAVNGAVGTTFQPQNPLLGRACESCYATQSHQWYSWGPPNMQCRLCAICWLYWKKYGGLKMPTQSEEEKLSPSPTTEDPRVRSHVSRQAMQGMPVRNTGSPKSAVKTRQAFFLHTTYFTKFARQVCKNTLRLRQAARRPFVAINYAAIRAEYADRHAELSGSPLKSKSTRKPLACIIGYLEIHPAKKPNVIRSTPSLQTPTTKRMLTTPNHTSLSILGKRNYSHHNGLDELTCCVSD
UniProt Q15746, whole entry, looked up: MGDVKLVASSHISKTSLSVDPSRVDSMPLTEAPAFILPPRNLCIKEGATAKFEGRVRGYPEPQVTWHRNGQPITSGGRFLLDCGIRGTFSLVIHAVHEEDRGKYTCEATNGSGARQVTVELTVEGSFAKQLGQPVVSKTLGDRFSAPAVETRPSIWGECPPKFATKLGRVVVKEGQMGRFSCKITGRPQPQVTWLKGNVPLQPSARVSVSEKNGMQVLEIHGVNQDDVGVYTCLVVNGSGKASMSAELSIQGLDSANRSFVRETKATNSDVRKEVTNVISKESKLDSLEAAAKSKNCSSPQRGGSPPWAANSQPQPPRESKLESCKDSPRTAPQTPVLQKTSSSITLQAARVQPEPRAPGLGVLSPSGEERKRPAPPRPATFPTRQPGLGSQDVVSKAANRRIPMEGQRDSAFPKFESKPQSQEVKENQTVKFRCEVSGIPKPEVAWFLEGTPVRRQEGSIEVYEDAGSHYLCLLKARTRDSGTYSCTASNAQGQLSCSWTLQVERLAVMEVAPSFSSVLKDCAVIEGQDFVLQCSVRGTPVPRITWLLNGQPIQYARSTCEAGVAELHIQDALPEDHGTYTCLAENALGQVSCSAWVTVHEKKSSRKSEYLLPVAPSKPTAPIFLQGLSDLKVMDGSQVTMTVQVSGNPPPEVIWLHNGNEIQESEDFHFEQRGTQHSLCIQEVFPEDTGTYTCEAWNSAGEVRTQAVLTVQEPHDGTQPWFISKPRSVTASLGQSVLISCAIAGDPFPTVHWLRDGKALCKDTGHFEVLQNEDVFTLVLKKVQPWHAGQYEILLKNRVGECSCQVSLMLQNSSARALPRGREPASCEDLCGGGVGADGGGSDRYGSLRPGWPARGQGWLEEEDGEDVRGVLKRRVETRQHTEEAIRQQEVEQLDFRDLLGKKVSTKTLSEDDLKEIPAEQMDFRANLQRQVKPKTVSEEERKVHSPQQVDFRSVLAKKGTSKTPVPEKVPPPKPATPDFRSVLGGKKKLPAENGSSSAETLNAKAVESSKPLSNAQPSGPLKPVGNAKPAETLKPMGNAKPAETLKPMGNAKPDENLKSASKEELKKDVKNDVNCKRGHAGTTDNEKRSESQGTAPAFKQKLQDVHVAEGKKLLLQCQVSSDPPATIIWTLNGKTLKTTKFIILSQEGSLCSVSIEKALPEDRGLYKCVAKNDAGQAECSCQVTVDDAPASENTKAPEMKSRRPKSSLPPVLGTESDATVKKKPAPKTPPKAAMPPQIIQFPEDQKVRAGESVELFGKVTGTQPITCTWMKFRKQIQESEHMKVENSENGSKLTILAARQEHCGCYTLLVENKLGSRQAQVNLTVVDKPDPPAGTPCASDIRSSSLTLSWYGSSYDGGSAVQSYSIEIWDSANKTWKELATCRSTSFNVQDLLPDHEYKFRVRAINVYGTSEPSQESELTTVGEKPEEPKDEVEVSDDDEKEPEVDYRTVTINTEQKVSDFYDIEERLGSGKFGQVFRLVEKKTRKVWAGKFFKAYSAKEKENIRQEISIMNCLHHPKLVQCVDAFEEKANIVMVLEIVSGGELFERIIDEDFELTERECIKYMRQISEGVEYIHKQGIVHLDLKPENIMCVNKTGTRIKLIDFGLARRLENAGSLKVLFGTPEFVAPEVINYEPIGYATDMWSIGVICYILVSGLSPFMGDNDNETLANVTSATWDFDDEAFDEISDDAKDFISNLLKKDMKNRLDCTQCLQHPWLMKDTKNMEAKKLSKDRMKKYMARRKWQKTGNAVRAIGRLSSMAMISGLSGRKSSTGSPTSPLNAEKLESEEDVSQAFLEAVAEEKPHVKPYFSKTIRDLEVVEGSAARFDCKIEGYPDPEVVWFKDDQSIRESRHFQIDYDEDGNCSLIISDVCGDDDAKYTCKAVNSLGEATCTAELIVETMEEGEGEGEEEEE
UniProt P20585: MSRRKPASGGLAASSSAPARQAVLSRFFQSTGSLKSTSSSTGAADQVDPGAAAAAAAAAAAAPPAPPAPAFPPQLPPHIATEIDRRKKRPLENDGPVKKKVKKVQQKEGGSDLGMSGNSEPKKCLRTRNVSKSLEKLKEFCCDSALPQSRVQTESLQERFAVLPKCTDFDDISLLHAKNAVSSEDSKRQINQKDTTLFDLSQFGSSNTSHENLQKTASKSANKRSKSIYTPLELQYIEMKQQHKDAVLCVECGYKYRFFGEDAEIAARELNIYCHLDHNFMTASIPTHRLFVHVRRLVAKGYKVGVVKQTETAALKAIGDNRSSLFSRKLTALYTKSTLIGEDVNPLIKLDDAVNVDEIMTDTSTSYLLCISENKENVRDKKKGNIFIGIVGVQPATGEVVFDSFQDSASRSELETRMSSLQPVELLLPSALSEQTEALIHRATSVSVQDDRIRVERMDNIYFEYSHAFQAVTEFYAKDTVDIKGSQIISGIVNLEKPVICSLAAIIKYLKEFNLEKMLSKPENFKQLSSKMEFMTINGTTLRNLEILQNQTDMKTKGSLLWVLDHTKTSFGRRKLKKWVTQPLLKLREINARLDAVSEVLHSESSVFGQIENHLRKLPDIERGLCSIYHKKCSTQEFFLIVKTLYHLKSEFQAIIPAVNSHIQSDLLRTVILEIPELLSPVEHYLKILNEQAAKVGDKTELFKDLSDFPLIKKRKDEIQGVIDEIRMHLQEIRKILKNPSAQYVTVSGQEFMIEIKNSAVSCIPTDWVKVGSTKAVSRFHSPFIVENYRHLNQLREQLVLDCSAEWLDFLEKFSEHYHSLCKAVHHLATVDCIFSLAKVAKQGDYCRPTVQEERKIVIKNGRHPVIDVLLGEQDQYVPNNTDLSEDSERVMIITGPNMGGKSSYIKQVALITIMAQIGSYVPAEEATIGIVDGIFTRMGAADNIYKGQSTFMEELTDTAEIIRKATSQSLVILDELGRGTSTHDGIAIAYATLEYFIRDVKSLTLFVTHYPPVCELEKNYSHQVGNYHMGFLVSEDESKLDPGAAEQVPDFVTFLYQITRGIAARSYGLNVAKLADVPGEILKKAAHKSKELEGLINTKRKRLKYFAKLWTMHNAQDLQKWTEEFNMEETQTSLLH
UniProt Q6P1R3: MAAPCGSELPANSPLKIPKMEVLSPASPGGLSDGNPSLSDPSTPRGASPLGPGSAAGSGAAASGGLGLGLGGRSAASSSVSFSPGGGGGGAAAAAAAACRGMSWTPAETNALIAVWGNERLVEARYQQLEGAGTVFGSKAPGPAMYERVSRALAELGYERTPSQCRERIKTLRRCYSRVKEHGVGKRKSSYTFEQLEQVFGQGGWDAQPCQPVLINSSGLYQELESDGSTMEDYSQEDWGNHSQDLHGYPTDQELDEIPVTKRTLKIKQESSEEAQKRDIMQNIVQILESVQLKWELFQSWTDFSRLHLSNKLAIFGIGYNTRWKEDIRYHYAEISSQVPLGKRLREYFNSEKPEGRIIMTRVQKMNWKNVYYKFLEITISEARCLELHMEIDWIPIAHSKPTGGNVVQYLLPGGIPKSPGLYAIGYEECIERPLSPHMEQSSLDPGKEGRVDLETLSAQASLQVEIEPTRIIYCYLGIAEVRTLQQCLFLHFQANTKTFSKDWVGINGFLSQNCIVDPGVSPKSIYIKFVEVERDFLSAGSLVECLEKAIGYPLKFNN

[2] = compound: CN1CCN(c2nc(C3=C(c4c[nH]c5ccccc45)C(=O)NC3=O)c3ccccc3n2)CC1 [sotrastaurin]
In short: as §1

[3] = compound: CN1CCc2c(c3ccccc3n2Cc2ccc(C(=O)NO)cc2)C1 [Tubastatin A]
In short: as §1

[4] = compound: CNC(=O)C1=CC=CC=C1NC2=NC(=NC=C2Cl)NC3=C(C=C(C=C3)N4CCOCC4)OC
In short: as §1

[5] = compound: CNC(=O)c1ccc(Nc2ncc(C(F)(F)F)c(NCc3nccnc3N(C)S(C)(=O)=O)n2)cc1 [defactinib]
In short: as §1

[6] = compound: CNCc1ccc(-c2[nH]c3cc(F)cc4c3c2CCNC4=O)cc1 [rucaparib]
In short: as §1

[7] = compound: CNc1nc(-c2ccc3c(N)n[nH]c3c2)cc(N2C[C@@H](C(=O)NC3CCCCC3)CC[C@H]2C)n1
In short: as §1

[8] = compound: COC(=O)N[C@@H](C)CNc1nccc(-c2cn(C(C)C)nc2-c2cc(Cl)cc(NS(C)(=O)=O)c2F)n1 [encorafenib]
In short: as §1

[9] = compound: COC(=O)[C@H](CCSC)NC(=O)C1=C(C=C(C=C1)NC[C@H](CS)N)C2=CC=CC=C2
In short: as §1

[10] = compound: COC1=CC=C(C=C1)CN2C=CC3=C2C=C(C=C3)C(=O)NO
In short: as §1

[11] = compound: CON(C)C(=O)N1N=C(c2cc(F)ccc2F)S[C@@]1(CCCN)c1ccccc1 [filanesib]
In short: as §1

[12] = compound: CO[C@H]1C[C@@H]2CC[C@@H](C)[C@@](O)(O2)C(=O)C(=O)N2CCCC[C@H]2C(=O)O[C@H]([C@H](C)C[C@@H]2CC[C@H](n3cnnn3)[C@H](OC)C2)CC(=O)[C@H](C)/C=C(\C)[C@@H](O)[C@@H](OC)C(=O)[C@H](C)C[C@H](C)/C=C/C=C/C=C/1C [zotarolimus]
In short: as §1

[13] = compound: COc1cc(C(=O)O)ccc1NC(=O)[C@@H]1N[C@@H](CC(C)(C)C)[C@](C#N)(c2ccc(Cl)cc2F)[C@H]1c1cccc(Cl)c1F [idasanutlin]
In short: as §1

[14] = compound: COc1cc(Nc2ncc3c(n2)-c2ccc(Cl)cc2C(c2c(F)cccc2OC)=NC3)ccc1C(=O)O [alisertib]
In short: as §1

[15] = compound: COc1cc2nc(-c3cc(F)ccc3O)nc(N[C@@H]3CNC[C@H]3C(C)(C)O)c2cc1OC
In short: as §1

[16] = compound: COc1cc2ncnc(Nc3ccc(F)c(Cl)c3)c2cc1OCCCN1CCOCC1 [gefitinib]
In short: as §1

[17] = compound: COc1cccc2cc(-c3nc([C@H]4CC[C@H](C(=O)O)CC4)n4ncnc(N)c34)[nH]c12
In short: as §1

[18] = compound: CS(=O)(=O)CCNCc1ccc(-c2ccc3ncnc(Nc4ccc(OCc5cccc(F)c5)c(Cl)c4)c3c2)o1 [lapatinib]
In short: as §1

[19] = compound: CS(=O)(=O)N1CCN(Cc2cc3nc(-c4cccc5[nH]ncc45)nc(N4CCOCC4)c3s2)CC1 [pictilisib]
In short: as §1

| Target | log2 fold change [1] | log2 fold change [2] | log2 fold change [3] | log2 fold change [4] | log2 fold change [5] | log2 fold change [6] | log2 fold change [7] | log2 fold change [8] | log2 fold change [9] | log2 fold change [10] | log2 fold change [11] | log2 fold change [12] | log2 fold change [13] | log2 fold change [14] | log2 fold change [15] | log2 fold change [16] | log2 fold change [17] | log2 fold change [18] | log2 fold change [19] |
| --- | --- | --- | --- | --- | --- | --- | --- | --- | --- | --- | --- | --- | --- | --- | --- | --- | --- | --- | --- |
| MT-ATP6 (UniProt P00846) | inactive: 0.253 | inactive: -0.059 | inactive: 0.122 | inactive: -0.018 | inactive: -0.095 | inactive: 0.06 | inactive: -0.176 | inactive: 0.016 | inactive: 0.05 | inactive: -0.018 | inactive: -0.036 | inactive: -0.022 | inactive: -0.084 | inactive: -0.05 | inactive: 0.133 | inactive: 0.05 | inactive: 0.055 | inactive: -0.105 | inactive: 0.208 |
| MSL1 (UniProt Q68DK7) | inactive: -0.026 | inactive: 0.052 | – | inactive: -0.253 | inactive: -0.069 | inactive: -0.042 | inactive: 0.04 | inactive: -0.088 | inactive: -0.017 | inactive: -0.163 | inactive: -0.013 | – | inactive: -0.113 | inactive: -0.081 | inactive: 0.275 | inactive: 0.04 | inactive: -0.012 | inactive: -0.117 | inactive: 0.197 |
| MRPS12 (UniProt O15235) | inactive: -0.19 | inactive: -0.068 | inactive: -0.02 | inactive: -0.017 | inactive: 0.119 | inactive: 0.299 | inactive: 0.233 | inactive: 0.105 | inactive: 0.048 | inactive: 0.018 | inactive: 0.074 | inactive: 0.039 | inactive: -0.162 | inactive: -0.03 | inactive: -0.088 | inactive: -0.078 | inactive: -0.062 | inactive: 0.082 | inactive: -0.177 |
| MRPS17 (UniProt Q9Y2R5) | inactive: -0.017 | inactive: -0.138 | inactive: 0.072 | inactive: 0.105 | inactive: 0.096 | inactive: 0.185 | inactive: 0.096 | inactive: 0.016 | inactive: -0.047 | inactive: -0.089 | inactive: 0.038 | inactive: 0.047 | inactive: -0.254 | inactive: -0.043 | inactive: -0.025 | inactive: 0.039 | inactive: -0.016 | inactive: 0.113 | inactive: 0.035 |
| MTERF3 (UniProt Q96E29) | inactive: -0.009 | inactive: -0.172 | inactive: 0.133 | inactive: -0.057 | – | – | inactive: -0.11 | – | – | – | inactive: -0.241 | – | – | inactive: 0.072 | – | – | inactive: 0.424 | – | inactive: 0.032 |
| MRPS35 (UniProt P82673) | inactive: -0.18 | inactive: -0.033 | inactive: 0.078 | inactive: -0.022 | inactive: 0.043 | inactive: 0.071 | inactive: 0.062 | inactive: 0.039 | inactive: 0.007 | inactive: 0.018 | inactive: 0.024 | inactive: 0.051 | inactive: -0.168 | inactive: -0.04 | inactive: 0.026 | inactive: -0.054 | inactive: -0.13 | inactive: 0.022 | inactive: -0.021 |
| MTCH2 (UniProt E9PIE4) | inactive: -0.013 | inactive: 0.042 | – | inactive: -0.018 | inactive: -0.003 | inactive: 0.057 | inactive: -0.075 | inactive: -0.038 | inactive: -0.011 | inactive: 0.087 | inactive: -0.048 | – | inactive: -0.009 | inactive: 0.001 | inactive: -0.046 | inactive: -0.005 | inactive: 0.057 | inactive: -0.051 | – |
| MRPS6 (UniProt P82932) | inactive: -0.197 | inactive: -0.058 | inactive: 0.011 | inactive: -0.003 | inactive: -0.023 | inactive: 0.056 | inactive: 0.092 | inactive: 0.016 | inactive: -0.126 | inactive: 0.204 | inactive: -0.019 | inactive: 0.038 | active: -0.275 | inactive: 0.029 | inactive: 0.012 | inactive: -0.051 | inactive: -0.081 | inactive: 0.035 | inactive: -0.003 |
| MRPS31 (UniProt Q92665) | inactive: 0.031 | inactive: -0.088 | inactive: 0.053 | inactive: 0.025 | inactive: 0.027 | inactive: 0.031 | inactive: 0.078 | inactive: 0.041 | inactive: 0.016 | inactive: 0.016 | inactive: 0.029 | inactive: 0.03 | inactive: -0.202 | inactive: -0.008 | inactive: -0.025 | inactive: -0.077 | inactive: -0.016 | inactive: 0.054 | inactive: -0.005 |
| MTFR1L (UniProt Q9H019) | inactive: 0.052 | inactive: -0.037 | inactive: 0.052 | inactive: -0.024 | inactive: -0.085 | – | inactive: -0.054 | – | inactive: -0.14 | inactive: 0.036 | inactive: -0.09 | inactive: 0.037 | inactive: -0.04 | – | inactive: -0.111 | inactive: 0.083 | – | inactive: 0.044 | inactive: 0.011 |
| MUL1 (UniProt Q969V5) | inactive: 0.054 | inactive: 0.079 | inactive: 0.047 | inactive: 0.056 | inactive: 0.059 | inactive: 0.072 | inactive: -0.018 | inactive: -0.074 | inactive: 0.079 | inactive: -0.044 | inactive: 0.042 | inactive: -0.064 | inactive: -0.052 | inactive: 0.069 | inactive: -0.05 | inactive: 0.017 | inactive: -0.08 | inactive: 0.006 | inactive: 0.006 |
| MRPS27 isoform 2 (UniProt Q92552) | inactive: -0.107 | inactive: -0.089 | inactive: 0.06 | inactive: 0.071 | inactive: -0.012 | inactive: 0.069 | inactive: 0.108 | inactive: 0.109 | inactive: -0.045 | inactive: 0.062 | inactive: 0.029 | inactive: 0.068 | inactive: -0.124 | inactive: -0.05 | inactive: -0.024 | inactive: 0.016 | inactive: -0.014 | inactive: 0.036 | inactive: -0.038 |
| MTA3 (UniProt Q9BTC8) | inactive: -0.001 | inactive: -0.295 | inactive: 0.062 | inactive: -0.049 | – | inactive: -0.002 | inactive: -0.002 | inactive: 0.094 | – | – | inactive: -0.283 | – | – | – | inactive: -0.152 | – | – | inactive: -0.036 | inactive: -0.023 |
| MRPS22 (UniProt P82650) | inactive: -0.098 | inactive: -0.122 | inactive: -0.006 | inactive: -0.038 | inactive: 0.058 | inactive: 0.143 | inactive: 0.169 | inactive: 0.064 | inactive: -0.051 | inactive: 0.041 | inactive: 0.05 | inactive: 0.071 | active: -0.301 | inactive: 0.015 | inactive: 0.019 | inactive: -0.017 | inactive: -0.019 | inactive: 0.038 | inactive: -0.03 |
| MTOR (UniProt P42345) | inactive: -0.076 | inactive: 0.088 | inactive: 0.002 | inactive: -0.005 | inactive: -0.09 | inactive: 0 | inactive: -0.009 | inactive: 0.041 | inactive: -0.02 | inactive: 0.002 | inactive: -0.112 | active: -0.308 | inactive: -0.09 | inactive: -0.017 | inactive: -0.012 | inactive: -0.018 | inactive: -0.019 | inactive: 0.014 | inactive: 0.019 |
| MYLK (UniProt Q15746) | inactive: 0.177 | inactive: -0.036 | inactive: 0.036 | inactive: 0.716 | inactive: -0.034 | inactive: -0.083 | inactive: -0.079 | inactive: 0.337 | inactive: -0.216 | inactive: -0.293 | inactive: 0.041 | inactive: 0.01 | – | inactive: -0.095 | inactive: 0.043 | inactive: 0.342 | inactive: 0.16 | inactive: 0.06 | inactive: 0.098 |
| MSH3 (UniProt P20585) | inactive: -0.013 | inactive: -0.003 | inactive: 0.045 | inactive: -0.026 | inactive: 0.015 | inactive: 0.031 | inactive: -0.011 | inactive: 0.069 | inactive: -0.02 | inactive: -0.074 | inactive: 0.005 | inactive: 0.036 | inactive: -0.004 | inactive: 0.008 | inactive: 0.093 | inactive: 0.005 | inactive: 0 | inactive: 0.042 | inactive: -0.006 |
| MSANTD2 (UniProt Q6P1R3) | inactive: -0.248 | inactive: 0.105 | inactive: 0.032 | – | inactive: -0.113 | inactive: -0.32 | inactive: 0.03 | inactive: -0.067 | inactive: -0.01 | – | inactive: -0.107 | – | – | – | – | – | – | – | – |
| MRPS2 (UniProt Q9Y399) | inactive: -0.243 | inactive: -0.145 | inactive: 0.036 | inactive: -0.021 | inactive: 0.034 | inactive: 0.104 | inactive: 0.035 | inactive: 0.084 | inactive: -0.088 | inactive: -0.052 | inactive: -0.05 | inactive: -0.02 | inactive: -0.054 | inactive: -0.19 | inactive: 0.005 | inactive: -0.036 | inactive: 0.006 | inactive: 0.071 | inactive: -0.015 |

Some of the entries above, reformatted:
Target,log2 fold change [1],log2 fold change [2],log2 fold change [3],log2 fold change [4],log2 fold change [5],log2 fold change [6],log2 fold change [7],log2 fold change [8],log2 fold change [9],log2 fold change [10],log2 fold change [11],log2 fold change [12],log2 fold change [13],log2 fold change [14],log2 fold change [15],log2 fold change [16],log2 fold change [17],log2 fold change [18],log2 fold change [19]
MTFR1L (UniProt Q9H019),inactive: 0.052,inactive: -0.037,inactive: 0.052,inactive: -0.024,inactive: -0.085,–,inactive: -0.054,–,inactive: -0.14,inactive: 0.036,inactive: -0.09,inactive: 0.037,inactive: -0.04,–,inactive: -0.111,inactive: 0.083,–,inactive: 0.044,inactive: 0.011
MUL1 (UniProt Q969V5),inactive: 0.054,inactive: 0.079,inactive: 0.047,inactive: 0.056,inactive: 0.059,inactive: 0.072,inactive: -0.018,inactive: -0.074,inactive: 0.079,inactive: -0.044,inactive: 0.042,inactive: -0.064,inactive: -0.052,inactive: 0.069,inactive: -0.05,inactive: 0.017,inactive: -0.08,inactive: 0.006,inactive: 0.006

From the supplement of paper PMC10849652
